Data published in patent publication US7030287B2, “Method of decreasing nitrate nitrogen and volatile organic compound in soil and groundwater” (Matsushita Electric Industrial Co., Ltd., priority 2001, dated 2006).

Test: Artificial groundwater experiment (Example 2): 800 g hydrogen donor added from artificial well, analysis of sampled groundwater
Conditions: 800 g material
Excerpt: FIG. 2 is a sectional view showing an artificial groundwater experiment facility used for effecting a groundwater experiment in the method of decreasing nitrate nitrogen and volatile organic compounds in Example 2.
In the experiment bath 17 surrounded by the concrete block frame 11 in the artificial groundwater experiment facility, the ground surface area of the experiment soil 12 was 18 m^2, and the soil depth was 6.0 m. Under this experiment soil 12, a gravel layer 13 is formed at a thickness of 50 cm. A mixture of kuroboku soil and loam at a ratio of about 6:4 was used as the experiment soil 12.
In the experiment bath 17, an artificial well 14 constituted of a vinyl chloride tube having a diameter of 20 cm is provided. This artificial well 14 is provided at a position 0.5 m from the inner wall surface at one end of the experiment bath 17 (this inner wall surface is standard position) and has a depth of about 6 m, and reaches to the gravel layer 13. Further, a nitrate nitrogen solution addition piper 16 for adding a nitrate nitrogen solution is buried at a position 2 m from the inner wall surface (standard position) of the experiment bath 17 in the artificial groundwater experiment facility, extending to a position 4 m depth from the ground surface. A measurement water incorporating port 15 communicating to outside is provided on another inner wall surface opposite to the standard surface, one inner wall surface. This measurement water incorporating port 15 is formed at a position 50 cm from the bottom (corresponding to the uppermost part of the gravel layer 13), and provided for sampling measurement water which is groundwater.
The following experiments were conducted in 12 compartments using the artificial soil experiment facility constituted as described above.
In each experiment bath 17, a nitrate nitrogen solution of which nitrate nitrogen concentration had been previously controlled to 40 mg/L was added continuously from the end of the nitrate nitrogen solution adding pipe 16 (position 4 m from the ground surface) at a rate of 12 mL/day using a metering pump.
Under the above-mentioned conditions, movement of artificial groundwater is estimated to about 6.5 m/year. The present inventors have added 800 g of each hydrogen donor from the artificial well 14 in each test district and each comparative district. 30 days after initiation of the test, water was sampled from the measurement water incorporating port 15 formed at a position 50 cm from the bottom (corresponding to the uppermost part of gravel layer), and analyses of the nitrate nitrogen concentration, ammonia nitrogen concentration and total carbon concentration of the collected water were conducted according to JIS methods.
In the case of `CCCCCCCCCCCCCCOC(=O)CCCCCCCCCCCCC` [Myristyl myristate], the “Ammonia nitrogen concentration after 30 days” value (from here on “Ammonia nitrogen concentration”) is reported as 0.6 mg/L and the “Whole carbon concentration after 30 days” value is reported as 8 mg/L.
For `CCCCCCCCCCCCCCCCCCO` [Stearyl alcohol], the “Ammonia nitrogen concentration” value was 0.9 mg/L and the “Whole carbon concentration after 30 days” value was 9 mg/L.
With Myristilate the “Ammonia nitrogen concentration” value was 0.5 mg/L and the “Whole carbon concentration after 30 days” value was 8 mg/L.
With Sorbitan monopalmitate the “Ammonia nitrogen concentration” value was 0.5 mg/L and the “Whole carbon concentration after 30 days” value was 7 mg/L.
In the case of Tetraglyceryl pentastearate, the “Ammonia nitrogen concentration” value is reported as 0.5 mg/L and the “Whole carbon concentration after 30 days” value is reported as 10 mg/L.
